# At least one result comes from cells or an extract, where the contact may be indirect. For some of these results: For at least one entry, the source does not settle the construct or the ends of the probe.
# Legend:
# CD44s = assay: binding assay; settings: PS (phosphodiester bonds replaced by phosphorothioate); in vivo xenograft homing in nude mice, 250 pmol iv; 3-fold higher than control at 24 h (not significant), significant at 72 h; protein on the cell surface; protein details: overexpressed in Hep3B xenograft; label: Cy3; single-stranded DNA; variant of CD44-Apt1 (biotin)
# CD44E = assay: binding assay; settings: PS (phosphodiester bonds replaced by phosphorothioate); in vivo xenograft homing in nude mice, 250 pmol iv; significant accumulation at 24 and 72 h versus parental Hep3B; protein on the cell surface; protein details: overexpressed in Hep3B xenograft; label: Cy3; single-stranded DNA; variant of CD44-Apt1 (biotin)
# [1] = test system: CD44E/s (CD44 splice variants CD44E and CD44s); assay: flow cytometry; settings: signal shift versus library; no shift on CD44-low MIHA, Hep3B, Huh7 cells; protein on the cell surface; protein details: stable overexpression in HKCI-C1 cells; label: Cy5; single-stranded DNA; variant of CD44-Apt1 (biotin)
# [2] = test system: CD44E/s (CD44 splice variants CD44E and CD44s); assay: binding assay; settings: confocal imaging; membrane, cytoplasm and nucleus; minimal in vector control, none in Hep3B and Huh7; protein on the cell surface; protein details: stable overexpression in HKCI-C1 cells; label: Cy3; single-stranded DNA; variant of CD44-Apt1 (biotin)
sequence,measurement,setting,value
ATCCAGAGTGACGCAGCATCGCAACGATTAGTATGCACCCACCGTATAGGTTGGTCTCTGGACACGGTGGCTTAGT [CD44-Apt1 phosphorothioate (Cy3)],binding result,CD44s,binds
same,binding result,CD44E,binds
ATCCAGAGTGACGCAGCATCGCAACGATTAGTATGCACCCACCGTATAGGTTGGTCTCTGGACACGGTGGCTTAGT [CD44-Apt1 (Cy5)],binding result,[1],binds
ATCCAGAGTGACGCAGCATCGCAACGATTAGTATGCACCCACCGTATAGGTTGGTCTCTGGACACGGTGGCTTAGT [CD44-Apt1 (Cy3)],binding result,[2],binds

# — patent publication US20220364094
